Experimental data as given in article PMC11078974.
These are yes or no findings as the source states them, for the method shown. Binding seen in cells or lysates may run through a third protein. Some results given as binding are weak or reduced against the parent protein; the word gives no strength. For some assays here: Sequences can lack the tags named with a protein.

The chains behind the UniProt entries cited, without tags or fusion partners. Where a name states a change or a piece, a line headed by the entry shows the natural chain unless it says otherwise.
UniProt Q9NS91: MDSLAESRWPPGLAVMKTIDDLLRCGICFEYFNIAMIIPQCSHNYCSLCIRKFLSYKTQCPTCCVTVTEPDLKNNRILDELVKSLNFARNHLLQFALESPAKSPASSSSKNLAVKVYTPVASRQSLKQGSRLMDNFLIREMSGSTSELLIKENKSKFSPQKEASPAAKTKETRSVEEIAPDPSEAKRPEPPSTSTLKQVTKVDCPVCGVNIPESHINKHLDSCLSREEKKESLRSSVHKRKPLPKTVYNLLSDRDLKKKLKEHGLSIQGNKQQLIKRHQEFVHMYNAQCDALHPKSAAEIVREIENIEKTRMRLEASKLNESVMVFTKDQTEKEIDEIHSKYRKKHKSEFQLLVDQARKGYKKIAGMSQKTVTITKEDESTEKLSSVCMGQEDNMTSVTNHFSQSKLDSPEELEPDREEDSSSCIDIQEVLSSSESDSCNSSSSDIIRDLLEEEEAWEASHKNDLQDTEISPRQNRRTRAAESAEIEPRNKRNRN
UniProt O00311: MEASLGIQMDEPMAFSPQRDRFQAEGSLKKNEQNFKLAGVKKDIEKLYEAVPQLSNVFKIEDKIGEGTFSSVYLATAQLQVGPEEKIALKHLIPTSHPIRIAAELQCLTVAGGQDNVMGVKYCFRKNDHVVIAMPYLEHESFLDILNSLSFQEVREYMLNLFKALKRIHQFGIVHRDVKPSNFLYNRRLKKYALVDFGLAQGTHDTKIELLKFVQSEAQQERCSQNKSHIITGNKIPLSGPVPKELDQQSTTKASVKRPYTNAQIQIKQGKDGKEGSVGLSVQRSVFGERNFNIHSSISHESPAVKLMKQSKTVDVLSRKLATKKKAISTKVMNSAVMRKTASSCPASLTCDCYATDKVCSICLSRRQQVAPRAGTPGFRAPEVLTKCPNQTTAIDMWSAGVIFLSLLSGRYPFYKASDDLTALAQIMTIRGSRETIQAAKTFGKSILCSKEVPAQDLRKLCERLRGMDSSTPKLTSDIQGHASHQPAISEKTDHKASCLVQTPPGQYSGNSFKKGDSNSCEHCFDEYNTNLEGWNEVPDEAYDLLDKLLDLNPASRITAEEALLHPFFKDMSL
UniProt O60934: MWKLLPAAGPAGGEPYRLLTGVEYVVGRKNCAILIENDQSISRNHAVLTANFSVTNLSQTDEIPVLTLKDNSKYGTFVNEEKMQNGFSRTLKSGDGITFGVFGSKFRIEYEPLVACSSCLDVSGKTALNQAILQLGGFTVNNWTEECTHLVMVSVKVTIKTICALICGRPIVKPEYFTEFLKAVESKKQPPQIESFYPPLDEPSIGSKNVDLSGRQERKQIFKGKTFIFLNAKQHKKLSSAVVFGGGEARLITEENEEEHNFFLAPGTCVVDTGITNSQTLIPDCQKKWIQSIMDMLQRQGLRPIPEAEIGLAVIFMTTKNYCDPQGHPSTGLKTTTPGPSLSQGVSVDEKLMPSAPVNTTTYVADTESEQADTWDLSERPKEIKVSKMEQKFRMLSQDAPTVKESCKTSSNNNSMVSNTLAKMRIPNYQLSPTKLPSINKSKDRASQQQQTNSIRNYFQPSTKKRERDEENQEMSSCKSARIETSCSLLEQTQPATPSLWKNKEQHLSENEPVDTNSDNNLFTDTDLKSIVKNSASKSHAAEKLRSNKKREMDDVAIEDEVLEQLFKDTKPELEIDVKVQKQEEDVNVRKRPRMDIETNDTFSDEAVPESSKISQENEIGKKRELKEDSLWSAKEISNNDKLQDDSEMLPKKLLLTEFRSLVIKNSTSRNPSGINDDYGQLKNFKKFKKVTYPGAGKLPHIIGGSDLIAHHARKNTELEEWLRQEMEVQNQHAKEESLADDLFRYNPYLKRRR

How the values were obtained:
[1] = biological target: His-RAD18 3A (S130A/S164A/T468A) (human) (UniProt Q9NS91); assay: pull-down; purified His-RAD18 on beads incubated with HEK293T cell lysates expressing HA-CDC7 in HEPES buffer (150 mM NaCl, 1% Triton X-100), 4 °C, 2 h; blot with HA antibody; only the target purified
HA-CDC7 = HA-CDC7 (UniProt O00311); assay: co-IP; HEK293T cells transfected with WT or 3A SFB-RAD18 and HA-CDC7; lysates immunoprecipitated with anti-HA beads, blot with Flag and HA antibodies
SFB-RAD18 (WT) (human) [2] = biological target: SFB-RAD18 (WT) (human) (UniProt Q9NS91); assay: co-IP; Supplementary Fig. 3; in the presence or absence of UV treatment; constructs and bait not shown
[3] = biological target: SFB-RAD18 3A (S130A/S164A/T468A) (human) (UniProt Q9NS91); assay: as above
His-RAD51C = biological target: T1, His-RAD51C (UniProt O43502); assay: pull-down; purified His-RAD51C on beads incubated with lysates of OGT knock-down HEK293T cells expressing SFB-RAD18, cells with glucose (60 mM) and TMG (5 uM) or not; HEPES buffer, 4 °C, 2 h; only the target purified
T1 sequence: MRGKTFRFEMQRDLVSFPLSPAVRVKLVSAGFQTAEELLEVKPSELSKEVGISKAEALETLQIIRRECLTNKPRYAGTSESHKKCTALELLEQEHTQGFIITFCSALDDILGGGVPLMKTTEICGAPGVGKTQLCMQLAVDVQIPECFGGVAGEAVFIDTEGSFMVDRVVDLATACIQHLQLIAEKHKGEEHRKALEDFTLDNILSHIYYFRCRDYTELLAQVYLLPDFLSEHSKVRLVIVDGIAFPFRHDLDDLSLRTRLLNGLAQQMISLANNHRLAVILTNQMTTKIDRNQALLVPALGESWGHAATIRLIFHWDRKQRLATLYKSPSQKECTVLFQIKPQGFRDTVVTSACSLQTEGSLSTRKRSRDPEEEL

Flag-RAD18 (human) = Flag-RAD18 (human) (UniProt Q9NS91); assay: co-IP; HEK293T cells co-transfected; whole cell lysates in HEPES buffer (50 mM HEPES pH 7.5, 150 mM NaCl, 1% Triton X-100); anti-Flag M2 agarose; with or without UV (15 J m^-2), OGT knock-down, glucose (60 mM) and TMG (5 uM)
GFP-RAD18 (WT) (human) = GFP-RAD18 (WT) (human) (UniProt Q9NS91); assay: co-IP; RAD18-depleted HEK293T cells transfected with WT or 3A GFP-RAD18 and SFB-RAD51C; immunoprecipitation with anti-GFP agarose, blot with Flag and GFP antibodies (the legend says that the lysates were denatured)
[4] = biological target: GFP-RAD18 3A (S130A/S164A/T468A) (human) (UniProt Q9NS91); assay: as above
SFB-RAD18 (WT) (human) [5] = biological target: SFB-RAD18 (WT) (human) (UniProt Q9NS91); assay: co-IP; chromatin (triton-insoluble) fraction of co-transfected HEK293T cells, anti-Flag M2 beads; glucose (60 mM) and TMG (5 uM); after UV (15 J m^-2); OGT knock-down in one panel
[6] = biological target: SFB-RAD18 3A (S130A/S164A/T468A) (human) (UniProt Q9NS91); assay: as above
SFB-RAD18 (WT) (human) [7] = biological target: SFB-RAD18 (WT) (human) (UniProt Q9NS91); assay: co-IP; HEK293T cells co-transfected; whole cell lysates in HEPES buffer (50 mM HEPES pH 7.5, 150 mM NaCl, 1% Triton X-100); anti-Flag M2 agarose; with or without UV (15 J m^-2), OGT knock-down, glucose (60 mM) and TMG (5 uM)

With “HA-CDC7 (from UniProt O00311 1-574) (enzyme)” the binding [1] was “binds”.

For “SFB-RAD18 3A (S130A/S164A/T468A) (from UniProt Q9NS91 1-495) (enzyme)”, the binding (HA-CDC7) was “binds”.

In the case of “Nijmegen breakage syndrome 1 (NBS1) (from UniProt O60934 1-754)”, the binding (SFB-RAD18 (WT) (human) [2]) is reported as “binds” and the binding [3] is reported as “binds”.

For “SFB-RAD18 (WT) (from UniProt Q9NS91 1-495) (enzyme)”, the binding (HA-CDC7) was “binds” and the binding (His-RAD51C) was “binds”.

B1: Myc-OGT (enzyme, UniProt O15294 1-1046)
chain: MASSVGNVADSTEPTKRMLSFQGLAELAHREYQAGDFEAAERHCMQLWRQEPDNTGVLLLLSSIHFQCRRLDRSAHFSTLAIKQNPLLAEAYSNLGNVYKERGQLQEAIEHYRHALRLKPDFIDGYINLAAALVAAGDMEGAVQAYVSALQYNPDLYCVRSDLGNLLKALGRLEEAKACYLKAIETQPNFAVAWSNLGCVFNAQGEIWLAIHHFEKAVTLDPNFLDAYINLGNVLKEARIFDRAVAAYLRALSLSPNHAVVHGNLACVYYEQGLIDLAIDTYRRAIELQPHFPDAYCNLANALKEKGSVAEAEDCYNTALRLCPTHADSLNNLANIKREQGNIEEAVRLYRKALEVFPEFAAAHSNLASVLQQQGKLQEALMHYKEAIRISPTFADAYSNMGNTLKEMQDVQGALQCYTRAIQINPAFADAHSNLASIHKDSGNIPEAIASYRTALKLKPDFPDAYCNLAHCLQIVCDWTDYDERMKKLVSIVADQLEKNRLPSVHPHHSMLYPLSHGFRKAIAERHGNLCLDKINVLHKPPYEHPKDLKLSDGRLRVGYVSSDFGNHPTSHLMQSIPGMHNPDKFEVFCYALSPDDGTNFRVKVMAEANHFIDLSQIPCNGKAADRIHQDGIHILVNMNGYTKGARNELFALRPAPIQAMWLGYPGTSGALFMDYIITDQETSPAEVAEQYSEKLAYMPHTFFIGDHANMFPHLKKKAVIDFKSNGHIYDNRIVLNGIDLKAFLDSLPDVKIVKMKCPDGGDNADSSNTALNMPVIPMNTIAEAVIEMINRGQIQITINGFSISNGLATTQINNKAATGEEVPRTIIVTTRSQYGLPEDAIVYCNFNQLYKIDPSTLQMWANILKRVPNSVLWLLRFPAVGEPNIQQYAQNMGLPQNRIIFSPVAPKEEHVRRGQLADVCLDTPLCNGHTTGMDVLWAGTPMVTMPGETLASRVAASQLTCLGCLELIAKNRQEYEDIAVKLGTDLEYLKKVRGKVWKQRISSPLFNTKQYTMELERLYLQMWEHYAAGNKPDHMIKPVEVTESA
For B1, the binding (Flag-RAD18 (human)) was “binds”.

B2: SFB-RAD51C (protein, UniProt O43502 1-376)
chain: MRGKTFRFEMQRDLVSFPLSPAVRVKLVSAGFQTAEELLEVKPSELSKEVGISKAEALETLQIIRRECLTNKPRYAGTSESHKKCTALELLEQEHTQGFIITFCSALDDILGGGVPLMKTTEICGAPGVGKTQLCMQLAVDVQIPECFGGVAGEAVFIDTEGSFMVDRVVDLATACIQHLQLIAEKHKGEEHRKALEDFTLDNILSHIYYFRCRDYTELLAQVYLLPDFLSEHSKVRLVIVDGIAFPFRHDLDDLSLRTRLLNGLAQQMISLANNHRLAVILTNQMTTKIDRNQALLVPALGESWGHAATIRLIFHWDRKQRLATLYKSPSQKECTVLFQIKPQGFRDTVVTSACSLQTEGSLSTRKRSRDPEEEL
B2 was tested, and the binding (GFP-RAD18 (WT) (human)) was “binds” and the binding [4] was “binds weakly”.

B3: GFP-Polη (enzyme, UniProt Q9Y253 1-713)
chain: MATGQDRVVALVDMDCFFVQVEQRQNPHLRNKPCAVVQYKSWKGGGIIAVSYEARAFGVTRSMWADDAKKLCPDLLLAQVRESRGKANLTKYREASVEVMEIMSRFAVIERASIDEAYVDLTSAVQERLQKLQGQPISADLLPSTYIEGLPQGPTTAEETVQKEGMRKQGLFQWLDSLQIDNLTSPDLQLTVGAVIVEEMRAAIERETGFQCSAGISHNKVLAKLACGLNKPNRQTLVSHGSVPQLFSQMPIRKIRSLGGKLGASVIEILGIEYMGELTQFTESQLQSHFGEKNGSWLYAMCRGIEHDPVKPRQLPKTIGCSKNFPGKTALATREQVQWWLLQLAQELEERLTKDRNDNDRVATQLVVSIRVQGDKRLSSLRRCCALTRYDAHKMSHDAFTVIKNCNTSGIQTEWSPPLTMLFLCATKFSASAPSSSTDITSFLSSDPSSLPKVPVTSSEAKTQGSGPAVTATKKATTSLESFFQKAAERQKVKEASLSSLTAPTQAPMSNSPSKPSLPFQTSQSTGTEPFFKQKSLLLKQKQLNNSSVSSPQQNPWSNCKALPNSLPTEYPGCVPVCEGVSKLEESSKATPAEMDLAHNSQSMHASSASKSVLEVTQKATPNPSLLAAEDQVPCEKCGSLVPVWDMPEHMDYHFALELQKSFLQPHSSNPQVVSAVSHQGKRNPKSPLACTNKRPRPEGMQTLESFFKPLTH
In the case of B3, the binding (SFB-RAD18 (WT) (human) [5]) is reported as “binds”, the binding [6] is reported as “binds” and the binding (SFB-RAD18 (WT) (human) [7]) is reported as “binds”.

B4: SIVA1 apoptosis-inducing factor (protein, UniProt O15304 1-175)
chain: MPKRSCPFADVAPLQLKVRVSQRELSRGVCAERYSQEVFEKTKRLLFLGAQAYLDHVWDEGCAVVHLPESPKPGPTGAPRAARGQMLIGPDGRLIRSLGQASEADPSGVASIACSSCVRAVDGKAVCGQCERALCGQCVRTCWGCGSVACTLCGLVDCSDMYEKVLCTSCAMFET
B4 was tested, and the binding (SFB-RAD18 (WT) (human) [2]) was “binds” and the binding [3] was “binds”.
